# Source: the supplement of paper PMC12889115
# The list shows a part of the results. Values are raw readings; no control value is given beside them.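 Primary screen: polymyxin B was added at a level permeabilizing Salmonella outer membranes while sparing inner membranes. DMSO wells, both with and without polymyxin B, established maximum growth. Plate-to-plate variation meant each plate was ranked on its own, and the lowest-OD600 compounds were selected as hits.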
# Test system: Salmonella enterica serovar Typhimurium SL1344
# Assay: bacterial growth OD600 after 18 h with compound and polymyxin B; higher = more bacterial growth (less inhibition)
# Details: 50 µM, Mueller-Hinton broth
SMILES,bacterial growth OD600 (polymyxin B 1 µg/mL),bacterial growth OD600 (polymyxin B 0.75 µg/mL)
CCS(=O)(=O)c1ncc(CN(C)Cc2ccccc2OC)n1CCc1ccccc1,0.799,–
COc1cccc(CCc2nnc(CCC(=O)N(C)Cc3ccc(F)cc3)o2)c1,0.734,–
CN(Cc1nc(-c2ccc(C(F)(F)F)cc2)no1)CC1(N2CCOCC2)CCCCC1,0.83,–
CCCN1CCC(NC(C)c2cnc(N3CCCCCCC3)nc2C)CC1 (stereo not given),–,0.763
c1cc(CN2CCc3onc(-c4ccc5c(c4)OCO5)c3C2)co1,–,0.779
Cc1ccc(OC2CCN(Cc3ccncc3)CC2)c(C(=O)NCc2ccco2)c1,–,0.92
CCn1cc(CN2CCC(Oc3ccc(C(=O)NCCOC)cc3Cl)CC2)c(C)n1,0.987,–
CCN(Cc1nccn1C)C(=O)c1ccc(N2CCN3CCCC3C2)nc1 (stereo not given),0.989,–
O=C(c1cc2ccccc2s1)N1CCCC(Nc2ccc3c(c2)OCCO3)C1 (stereo not given),0.012,–
COc1ccc(C(=O)N2CCCCC2C(=O)Nc2cccc(-c3nnc(C)s3)c2)cc1 (stereo not given),0.974,–
COc1ccc(F)c(CN2CCCC3(CCN(C(C)=O)C3)C2=O)c1 (stereo not given),0.908,–
COc1cccc(NC(=O)CCC2CCN(S(=O)(=O)c3c(C)noc3C)CC2)c1,0.825,–
O=C(c1cccnc1)N1CCC2(CCCN(Cc3cccc(F)c3F)C2=O)C1 (stereo not given),0.791,–
O=C1CCCN1CCC(=O)N1CCCC(CCc2ccc(F)cc2F)C1 (stereo not given),–,0.704
COC(=O)CC(NC1CCN(c2ccc(C(=O)NCc3ccccc3F)cc2)CC1)C(=O)OC (stereo not given),–,0.964
O=C(Cn1nnnc1CN1CCOCC1)N1CCCN(Cc2ccccc2F)CC1,0.933,–
COC(=O)CCC(=O)NC1CCCN(c2nc3ccccc3s2)C1 (stereo not given),–,0.805
CCOC(=O)C1(Cc2cccc(Cl)c2)CCCN(C(=O)CSc2ccncc2)C1 (stereo not given),0.014,–
Cc1ncsc1CCCNC(=O)CCN1Cc2ccccc2OC(c2ccccc2F)C1 (stereo not given),–,0.015
CN(CCn1ccc2ccccc21)C(=O)c1coc(COc2ccccc2)n1,–,0.005

# A draw from above in order of SMILES length, low to high.
SMILES,bacterial growth OD600 (polymyxin B 1 µg/mL),bacterial growth OD600 (polymyxin B 0.75 µg/mL)
CCS(=O)(=O)c1ncc(CN(C)Cc2ccccc2OC)n1CCc1ccccc1,0.799,–
CCOC(=O)C1(Cc2cccc(Cl)c2)CCCN(C(=O)CSc2ccncc2)C1 (stereo not given),0.014,–
COc1ccc(C(=O)N2CCCCC2C(=O)Nc2cccc(-c3nnc(C)s3)c2)cc1 (stereo not given),0.974,–
